Screen size: about 53,000 sequences; about 3,700 (7%) were called active.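 How the source made its calls: active means gene knockdowns whose robust z-score for IL-1 alpha signal is at least 2 or at most -2, so actives lie on both sides; inactive means the rest.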 This is one part of the list.
experiment: Components of the Cytosolic LPS Sensing Pathway: Gene Identification via Genome-wide siRNA Screen; conditions: RAW264.7 macrophages, IL-1a HTRF, actives lie on both sides, screened at 100 nM (by protocol), cells primed 5 h with Pam3CSK4 first;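 further: robust z of the log signal after scaling to non-targeting control siRNA wells of the plate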
Procedure, shortened: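 Knockdown: 100 nM siRNA, 48h, RAW264.7. Stimulation: Pam3CSK4 5 h, then LipidA via TransIT-TKO 24 h. Output: supernatant IL-1a HTRF, negative-control-normalized, log robust z-score; viability by CellTiter-Glo.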

Row | Sequence | z-score
1 | GGUUCAAUGCUCCCUUCGATT against Ghrl | inactive: 0.712
2 | GGGUAGACCUCAAUGAUAUTT against Klhl31 | inactive: -0.575
3 | GCUGGUGCUGUGCAUCUUUTT against Aqp2 | inactive: -0.922
4 | GCCAUUUGAAACUCUCCUGTT against Gstp3 | inactive: -1.71
5 | GGGUUUUAAGAAUCAGACUTT against Megf6 | inactive: 0.0599
6 | GGAGCUGUUUCCAGUUCAGTT against Tomm40 | inactive: -1.12
7 | GGAAAUUUGCCGGCCAAAUTT against Fam83a | inactive: 0.557
8 | CGACAAUACUCUAUUGUUUTT against Agbl2 | inactive: 1.87
9 | GGAGCAUUGCUCUUCUUCATT against Get4 | inactive: -0.073
10 | CCGUGUUCCGAGGAUAUGUTT against Cyp2e1 | inactive: -0.212
11 | GGUAAAGAUCUUUGAAGAGTT against Tnip1 | inactive: -0.172
12 | CGACAAACUCACCUUGUCCTT against Dusp21 | inactive: -0.584
13 | GCAUGUUGAUCAAGACUUGTT against Cdk6 | inactive: -0.82
14 | GGACACGCUUCAAAUGGAUTT against Lcmt1 | inactive: 0.0561
15 | GGCCUUAUGGAGUAAACUUTT against Ang3 | inactive: 1.57
16 | GCAGUCCUCGUCCUCAAAGTT against Btbd10 | active: 2.16
17 | GGCACCCUAUUUGUCAACGTT against Lrrc24 | inactive: -0.784
18 | GGCUAUACUCUGAAUUCAATT against Zfp61 | inactive: 1.49
19 | GGACAGCAAUAUUACACGUTT against Zfp39 | inactive: -0.211
20 | GGGCUCUUAUAACUCUUUATT against Calm4 | inactive: -0.142
21 | GGGAGUCACGAAAUUACAATT against Slco6c1 | inactive: -1.14
22 | GCAUUGAUGUGGUUAUAACTT against Llph | inactive: -0.214

Already shown: an excerpt of the list.
Row | Sequence | z-score
10 | CCGUGUUCCGAGGAUAUGUTT against Cyp2e1 | inactive: -0.212
11 | GGUAAAGAUCUUUGAAGAGTT against Tnip1 | inactive: -0.172
12 | CGACAAACUCACCUUGUCCTT against Dusp21 | inactive: -0.584
13 | GCAUGUUGAUCAAGACUUGTT against Cdk6 | inactive: -0.82

(next part)

Row | Sequence | z-score
23 | GGUCAGGCUUAUGAAUAUUTT against Reep4 | inactive: -0.534
24 | GGAAGGCAUAAGAAAACUGTT against Tbk1 | inactive: 1.91
25 | GCUUUAGUGACGGCUCGAATT against Zscan2 | active: 2.07
26 | GGACAGAAUGCUGAUGUUUTT against Rgl1 | inactive: 0.484
27 | UUAUAUCCUGCCUUCUAUUTT against Psg28 | inactive: 0.0581
28 | GGAUACAACUCCUGUGAUGTT against Hbp1 | inactive: -0.405
29 | GGUGAAAAACAACAUCUGCTT against Coq4 | inactive: -0.987
30 | CCAGGAGUCGAGUGAUGGUTT against Rtl1 | inactive: 0.886
31 | GGAUGUACUGAGUAGCUUUTT against Mical1 | inactive: 0.45
32 | CCAUCUAGGUUAUUACAUGTT against Dnaaf6 | inactive: 0.403
33 | GGUAUUCAGUAUUUUGACUTT against Olfr196 | inactive: 1.56
34 | GGUGAUUGACAACACACUGTT against Cpne9 | inactive: -1.01
35 | GGAAAGAAGAAAGUGCAAUTT against Tns1 | inactive: 0.0363
36 | GGCUGCUGACAUUUUCAUCTT against Lrrc28 | inactive: 1.53
37 | GCUACUCCAAGGUGAAAGUTT against Tssk6 | inactive: 0.452
38 | UGCUGGUGUCGUUAUGAAGTT against Pla2g12a | inactive: -1.09
39 | GGAGGAGGACAUCUUCAUCTT against Pex11g | inactive: 1.57
40 | CCUUAUGGCCUACGACUUCTT against Chit1 | inactive: -0.968
41 | GGCAAUCCACCAAGUACAATT against Ptpn22 | inactive: 0.705
42 | GAAAGUGGAAGCCACCAGUTT against Olfr110 | inactive: -0.474
43 | CCUCUCCUGGUCUUAACAGTT against Rem2 | inactive: 0.637
44 | GGCCUUGUACACUUUGAUGTT against Ldah | inactive: 0.622

Retrieved one by one from above:
Row | Sequence | z-score
33 | GGUAUUCAGUAUUUUGACUTT against Olfr196 | inactive: 1.56
24 | GGAAGGCAUAAGAAAACUGTT against Tbk1 | inactive: 1.91

Later entries

Row | Sequence | z-score
45 | GGAUUUGAAAUAGGAAUAGTT against Sh3yl1 | inactive: 0.689
46 | GGCCUAAGAAAACUCCAGCTT against Atp5md | inactive: -0.854
47 | GAUGCUAGUGAACCUCAUGTT against Olfr1020 | inactive: -0.765
48 | GCGAAUGAGAUACGAGUACTT against Ust | inactive: -0.224
49 | GGCACUUCCUCGCUAAUAUTT against St7 | inactive: 0.495
50 | GCAAUUAGAGAUGAAGCAATT against Ndufaf1 | inactive: 0.894
51 | GGAUAAGCGUAUUUCUUUGTT against Olfr1015 | inactive: -0.609
52 | CCGAAAAAUAUGUUUUCCGTT against Mettl4 | active: 2.87
53 | GGAUCAAAGGAAGAAGGGCTT against Zbtb24 | inactive: -0.00585
54 | GGAUAUCUGUUGCAUGGCATT against Wdr36 | inactive: -1.12
55 | GCUCAGGAUCGCUAUUACATT against Il12b | inactive: -1.54
56 | CCAAAGUAGAUGUGACCUATT against Rftn1 | inactive: -0.65
57 | GGCCCUGCUUGUGUUUAAUTT against Ccdc71 | inactive: 1.22
58 | GGACUACCUGGUACAGUCATT against Rhbdd2 | inactive: -0.411
59 | CCUCAGAAAAAGAGUGUGCTT against 4930563M21Rik | inactive: 0.924
60 | GGGAUUGCUCACAUCUCUGTT against Sirpb1a | inactive: 0.446
61 | GGACUUCCUGACCAUCAUCTT against Tescl | inactive: -0.354
62 | GGGAACAGUAUCUGAUUCATT against Polg | active: 2.35
63 | GGGAUUCAGAGUCAAGAUUTT against Thpo | inactive: -0.275
64 | GGAGCUACCAAGUUACUUCTT against Adgre4 | inactive: 0.592
65 | GGGAGUGCCUUUAAAACACTT against Satb1 | inactive: 0.882
66 | GGUGUUAGCUACAGAGACCTT against Rab32 | inactive: 0.267

Row | Sequence | z-score
67 | GGCUUUCAGAGUUAACAAATT against Ptpn4 | inactive: -0.727
68 | CCCUACAGUACUAAUCAAATT against Ptgs2 | inactive: 0.6
69 | GCUUAUUUGUGGUACACGGTT against D030056L22Rik | inactive: 0.112
70 | GGACAGUUUCACGACAACGTT against Khsrp | inactive: -0.392
71 | UAAUAUCUGGCACUUUAUGTT against Ctxn1 | inactive: 0.0897
72 | GUCUUCCGGACAAGACAUATT against Hoxa6 | inactive: 1.09
73 | GGAAAUUGAAGCAAAGAAGTT against Myo3b | inactive: 0.105
74 | GGCAGAAUCAGUUGAAAUUTT against Terf2ip | inactive: 0.917
75 | GGCCACCAUGAAAGACGACTT against Eif3j1 | inactive: 1.09
76 | GUAAUCUUCACCGCCUCUCTT against Olfr315 | inactive: 0.934
77 | CCAGUAUUCGCACAUCUCGTT against Olfm2 | inactive: 0.695
78 | GGAGAGAAAAAGUAAUAUCTT against Fgf1 | inactive: 0.843
79 | GCCUGUGAGAUCAUCUUUUTT against Pkd2 | inactive: -0.622
80 | GGCAGAGCUAGAUCAAAUUTT against Retreg1 | active: 3.58
81 | GGUCAAGUCACUGCUUGAATT against Csta2 | inactive: -0.253
82 | GGCCAAAAUCUCAACAUAUTT against Glcci1 | inactive: -1.36
83 | GGAAAACAAGCCUGUAUUUTT against Mbd4 | inactive: -0.57
84 | CCUUGGAGAGAGAAGACAUTT against Rpp38 | inactive: 0.292
85 | CGACCUAACCAACAUGCUUTT against Asap3 | inactive: 0.0248
86 | GGGACAGUGUCCAGAAAAGTT against D130020L05Rik | inactive: -0.914
87 | GGUGCUUAAACUUCACCCUTT against Polg2 | inactive: 0.143
88 | GGAUGCUAUGCCAAAAACUTT against Csrp1 | inactive: -0.309

Row | Sequence | z-score
89 | GGUUAUGGACAUUCAUGCCTT against Meis2 | inactive: -0.592
90 | GGAAUUCCUCCUAUGUUCATT against G3bp2 | inactive: -1.07
91 | GGUCUUGUGGUGGUACUACTT against Elovl2 | inactive: 1.77
92 | CCUUAGGAGUACUUAAAAATT against Isl1 | inactive: 0.0379
93 | GGAGGUUCUGCCCAUAACUTT against Whrn | inactive: -0.686
94 | GGCCAUGCUGAGUUAGAUATT against Slc10a3 | inactive: 0.189
95 | GUAUGAACACGCAGCAAACTT against Mmd2 | inactive: 0.169
96 | GGUGUACAGUAUUUUAGUUTT against Clip4 | inactive: 1.12
97 | GGGUCUACGAAGAAUAGGGTT against Cxcl14 | inactive: 0.744
98 | GGCAUGAGAAUUGGUCCAGTT against Ehd4 | inactive: -1.22
99 | GGCUGUGGAACACAUCAACTT against Eno3 | inactive: -0.787
100 | CGACUACCUGGAUAUCUACTT against Efna2 | inactive: -0.292
101 | GGAUAUUUGGAGAGAGAGGTT against Lrrn2 | inactive: -0.895
102 | CGAAUUAUAGCAUUCAGCCTT against Map3k3 | inactive: 0.173
103 | GGGAACCAUCAAUAGGCACTT against Apol7a | inactive: 0.923
104 | GCAUGAUUCACCUGACACCTT against Nkx2-1 | inactive: -0.91
105 | CGGAUAUGAGAUGAGAAUGTT against Morn4 | active: -2.4
106 | GGCAGCACUACAAAACUUGTT against Rnf138rt1 | inactive: 0.193
107 | GGGACCUCCAUCGUAUUUGTT against Slc29a4 | inactive: 0.71

— PubChem BioAssay AID1508600 (Functional Genomics Laboratory (NCATS/FGL), 2020)
